Assay [1] concerns the target T1, LacI-MAD1-FL (full length: aa 1–718) (human) (UniProt Q9Y6D9).
T1 sequence: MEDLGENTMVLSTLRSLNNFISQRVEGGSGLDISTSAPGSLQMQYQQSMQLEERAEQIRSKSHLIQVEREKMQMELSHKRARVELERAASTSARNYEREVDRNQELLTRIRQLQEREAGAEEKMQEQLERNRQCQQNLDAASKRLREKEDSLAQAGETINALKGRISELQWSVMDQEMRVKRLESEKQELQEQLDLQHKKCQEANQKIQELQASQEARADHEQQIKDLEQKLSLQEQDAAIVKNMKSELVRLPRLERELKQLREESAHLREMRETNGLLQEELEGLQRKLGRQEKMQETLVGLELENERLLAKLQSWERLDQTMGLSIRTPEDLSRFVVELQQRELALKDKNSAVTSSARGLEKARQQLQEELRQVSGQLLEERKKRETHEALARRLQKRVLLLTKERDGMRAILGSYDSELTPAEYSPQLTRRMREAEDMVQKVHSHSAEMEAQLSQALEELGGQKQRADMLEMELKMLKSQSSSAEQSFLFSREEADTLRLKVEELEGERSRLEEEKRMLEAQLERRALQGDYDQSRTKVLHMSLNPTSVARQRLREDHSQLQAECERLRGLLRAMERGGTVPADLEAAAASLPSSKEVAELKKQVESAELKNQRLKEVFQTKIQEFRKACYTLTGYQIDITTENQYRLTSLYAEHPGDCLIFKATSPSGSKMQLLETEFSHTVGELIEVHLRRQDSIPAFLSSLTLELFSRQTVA
Description: LacO/LacI tethering, co-recruitment seen by microscopy; LacI-MAD1 recruited to a LacO array on chromosome 1 in U2OS cells; Cyclin B1 seen by immunofluorescence (Fig 1F) or live imaging of Cyclin B1-mCherry (Fig 1G).

Sequences of proteins named here, by UniProt entry; tags and fusion partners are left off. A change or cut given only in a name is not applied to a line headed by its entry.
UniProt P14635: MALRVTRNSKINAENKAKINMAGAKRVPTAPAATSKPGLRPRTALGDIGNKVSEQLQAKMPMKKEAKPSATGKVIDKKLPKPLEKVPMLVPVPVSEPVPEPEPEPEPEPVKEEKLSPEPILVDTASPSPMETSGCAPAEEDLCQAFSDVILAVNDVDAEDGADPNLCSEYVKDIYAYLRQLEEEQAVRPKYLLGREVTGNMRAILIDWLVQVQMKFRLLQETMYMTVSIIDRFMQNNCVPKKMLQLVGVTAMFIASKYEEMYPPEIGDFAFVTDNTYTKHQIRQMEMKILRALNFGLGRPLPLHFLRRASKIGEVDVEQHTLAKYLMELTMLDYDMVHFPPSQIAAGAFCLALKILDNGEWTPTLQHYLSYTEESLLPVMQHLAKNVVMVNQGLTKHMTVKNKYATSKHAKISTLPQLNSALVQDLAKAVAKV
UniProt P06493: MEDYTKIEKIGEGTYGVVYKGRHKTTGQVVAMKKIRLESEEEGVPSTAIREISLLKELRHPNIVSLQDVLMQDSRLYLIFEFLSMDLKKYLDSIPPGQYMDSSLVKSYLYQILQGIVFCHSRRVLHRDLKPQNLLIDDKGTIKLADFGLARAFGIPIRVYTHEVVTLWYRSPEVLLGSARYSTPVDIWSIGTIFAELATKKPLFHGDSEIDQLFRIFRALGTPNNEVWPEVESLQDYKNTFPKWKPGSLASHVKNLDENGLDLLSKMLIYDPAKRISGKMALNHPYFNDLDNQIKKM

For assay [2], the target named is T2, MBP-MAD1^1–92-SNAP (human) (UniProt Q9Y6D9).
T2 sequence: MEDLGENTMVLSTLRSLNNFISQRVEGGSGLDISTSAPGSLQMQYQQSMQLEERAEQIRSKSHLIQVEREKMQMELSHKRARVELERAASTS
Description: SEC; analytical SEC; proteins mixed at 1:1 molar ratio, typically 5 μM, 30 min on ice; 4°C; 50 mM Hepes pH 8.0, 150 mM NaCl, 2 mM TCEP; fractions on SDS-PAGE, Coomassie; both purified.

For assay [3], the target named is MBP-MAD1:MAD2 complex (full-length MAD1) (UniProt Q9Y6D9). The assay is described as above.
The target in assay [4] is MBP-MAD1^Δ93:MAD2 complex (UniProt Q9Y6D9). The assay is described as above.
The next assay concerns the target T3, MBP-MAD1^41–62 (human) (UniProt Q9Y6D9).
T3 sequence: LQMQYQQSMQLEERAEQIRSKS
The description is as above.

The target in assay [5] is MBP-MAD1:MAD2 complex (full-length MAD1) (UniProt Q9Y6D9). Description: low-angle metal shadowing electron microscopy; SEC fraction holding the complex, sprayed on mica, rotary-shadowed with platinum/carbon; both purified.

Results are given in words; binding and its absence hold for the method and conditions named. Some binding calls cover weakened binding; strength is not graded here. For part of these data: Tags and fused reporters may be left off the sequences shown.

Turning to “Cyclin B1 (endogenous, U2OS cells) (from UniProt P14635 1-433)”, the binding result in assay [1] was “binds”.

Turning to Cyclin B1 (from UniProt P14635 1-433), the binding result in assay [2] and in assay [3] was “binds” each time.

Consider “Cyclin B1-mCherry (from UniProt P14635 1-433)”, for which, in assay [1], the binding entry is on record as “binds”.

Take “Cyclin B1:CDK1 complex (from UniProt P14635 1-433; P06493 1-297)”: the binding entry in assay [4] was “no binding (tested: 5 μM)”; in the assay with MBP-MAD1^41–62 (human), “binds”; in assay [2], “binds”; in assay [3], “binds”.

In the case of “GST-CDK1:Cyclin B1 complex (from UniProt P06493 1-297; P14635 1-433)”, in assay [5], the binding result was “binds”.

These data come from article PMC7298293.
